In the supplement of paper PMC10849652:
Some of the results follow.

Chains of the proteins cited; added tags and fusions are not shown. Lines headed by an entry give the natural chain unless they say otherwise; changes in a name come on top.
UniProt Q86V88: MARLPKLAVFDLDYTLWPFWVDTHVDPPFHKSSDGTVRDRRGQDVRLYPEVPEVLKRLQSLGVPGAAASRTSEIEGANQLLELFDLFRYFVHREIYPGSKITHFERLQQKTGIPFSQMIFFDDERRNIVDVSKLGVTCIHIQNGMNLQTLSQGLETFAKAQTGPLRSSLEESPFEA
UniProt Q8NHS3: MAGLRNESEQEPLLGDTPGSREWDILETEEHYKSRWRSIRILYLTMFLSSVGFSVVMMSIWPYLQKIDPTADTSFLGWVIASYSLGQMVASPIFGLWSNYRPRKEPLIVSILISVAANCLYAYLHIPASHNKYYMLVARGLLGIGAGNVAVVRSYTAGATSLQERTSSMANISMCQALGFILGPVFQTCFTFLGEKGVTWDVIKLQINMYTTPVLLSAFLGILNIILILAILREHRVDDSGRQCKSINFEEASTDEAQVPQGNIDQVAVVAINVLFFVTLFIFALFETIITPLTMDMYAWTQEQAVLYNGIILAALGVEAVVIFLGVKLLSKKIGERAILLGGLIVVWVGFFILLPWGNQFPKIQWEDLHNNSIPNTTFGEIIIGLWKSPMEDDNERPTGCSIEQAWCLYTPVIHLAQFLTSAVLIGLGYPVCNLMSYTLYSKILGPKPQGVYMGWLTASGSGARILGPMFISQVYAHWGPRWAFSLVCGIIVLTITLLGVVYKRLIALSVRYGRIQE
UniProt Q15528: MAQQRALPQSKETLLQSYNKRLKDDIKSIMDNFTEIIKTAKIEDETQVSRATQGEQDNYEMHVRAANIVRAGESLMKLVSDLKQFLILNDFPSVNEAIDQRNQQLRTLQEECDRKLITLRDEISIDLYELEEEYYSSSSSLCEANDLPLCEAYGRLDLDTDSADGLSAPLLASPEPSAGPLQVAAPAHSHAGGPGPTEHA
UniProt Q12866: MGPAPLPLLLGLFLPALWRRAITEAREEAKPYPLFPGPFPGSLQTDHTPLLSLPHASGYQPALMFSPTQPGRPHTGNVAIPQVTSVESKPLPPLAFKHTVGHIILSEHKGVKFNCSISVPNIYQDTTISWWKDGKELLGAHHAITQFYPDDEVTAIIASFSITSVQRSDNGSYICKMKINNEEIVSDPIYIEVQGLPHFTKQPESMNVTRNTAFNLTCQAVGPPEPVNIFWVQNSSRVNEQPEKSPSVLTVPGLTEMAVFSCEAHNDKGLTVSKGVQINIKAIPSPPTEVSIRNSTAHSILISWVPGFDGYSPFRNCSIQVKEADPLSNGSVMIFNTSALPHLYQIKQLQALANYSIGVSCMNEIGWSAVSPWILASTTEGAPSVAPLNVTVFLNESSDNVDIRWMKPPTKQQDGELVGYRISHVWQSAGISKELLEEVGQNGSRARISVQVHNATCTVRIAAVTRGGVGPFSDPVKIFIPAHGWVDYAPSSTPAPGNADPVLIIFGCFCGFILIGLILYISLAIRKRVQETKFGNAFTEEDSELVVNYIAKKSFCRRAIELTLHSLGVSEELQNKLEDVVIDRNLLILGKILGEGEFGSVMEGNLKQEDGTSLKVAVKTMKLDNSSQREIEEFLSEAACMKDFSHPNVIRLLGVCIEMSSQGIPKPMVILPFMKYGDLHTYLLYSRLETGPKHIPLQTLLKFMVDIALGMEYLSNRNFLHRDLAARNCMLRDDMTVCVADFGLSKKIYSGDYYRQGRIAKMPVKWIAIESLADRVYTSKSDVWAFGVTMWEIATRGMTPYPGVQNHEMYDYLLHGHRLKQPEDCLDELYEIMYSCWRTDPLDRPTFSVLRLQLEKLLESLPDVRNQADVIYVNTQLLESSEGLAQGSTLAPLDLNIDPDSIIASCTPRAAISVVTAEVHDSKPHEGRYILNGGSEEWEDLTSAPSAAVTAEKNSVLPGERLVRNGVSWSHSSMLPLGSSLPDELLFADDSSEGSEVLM
UniProt O60318: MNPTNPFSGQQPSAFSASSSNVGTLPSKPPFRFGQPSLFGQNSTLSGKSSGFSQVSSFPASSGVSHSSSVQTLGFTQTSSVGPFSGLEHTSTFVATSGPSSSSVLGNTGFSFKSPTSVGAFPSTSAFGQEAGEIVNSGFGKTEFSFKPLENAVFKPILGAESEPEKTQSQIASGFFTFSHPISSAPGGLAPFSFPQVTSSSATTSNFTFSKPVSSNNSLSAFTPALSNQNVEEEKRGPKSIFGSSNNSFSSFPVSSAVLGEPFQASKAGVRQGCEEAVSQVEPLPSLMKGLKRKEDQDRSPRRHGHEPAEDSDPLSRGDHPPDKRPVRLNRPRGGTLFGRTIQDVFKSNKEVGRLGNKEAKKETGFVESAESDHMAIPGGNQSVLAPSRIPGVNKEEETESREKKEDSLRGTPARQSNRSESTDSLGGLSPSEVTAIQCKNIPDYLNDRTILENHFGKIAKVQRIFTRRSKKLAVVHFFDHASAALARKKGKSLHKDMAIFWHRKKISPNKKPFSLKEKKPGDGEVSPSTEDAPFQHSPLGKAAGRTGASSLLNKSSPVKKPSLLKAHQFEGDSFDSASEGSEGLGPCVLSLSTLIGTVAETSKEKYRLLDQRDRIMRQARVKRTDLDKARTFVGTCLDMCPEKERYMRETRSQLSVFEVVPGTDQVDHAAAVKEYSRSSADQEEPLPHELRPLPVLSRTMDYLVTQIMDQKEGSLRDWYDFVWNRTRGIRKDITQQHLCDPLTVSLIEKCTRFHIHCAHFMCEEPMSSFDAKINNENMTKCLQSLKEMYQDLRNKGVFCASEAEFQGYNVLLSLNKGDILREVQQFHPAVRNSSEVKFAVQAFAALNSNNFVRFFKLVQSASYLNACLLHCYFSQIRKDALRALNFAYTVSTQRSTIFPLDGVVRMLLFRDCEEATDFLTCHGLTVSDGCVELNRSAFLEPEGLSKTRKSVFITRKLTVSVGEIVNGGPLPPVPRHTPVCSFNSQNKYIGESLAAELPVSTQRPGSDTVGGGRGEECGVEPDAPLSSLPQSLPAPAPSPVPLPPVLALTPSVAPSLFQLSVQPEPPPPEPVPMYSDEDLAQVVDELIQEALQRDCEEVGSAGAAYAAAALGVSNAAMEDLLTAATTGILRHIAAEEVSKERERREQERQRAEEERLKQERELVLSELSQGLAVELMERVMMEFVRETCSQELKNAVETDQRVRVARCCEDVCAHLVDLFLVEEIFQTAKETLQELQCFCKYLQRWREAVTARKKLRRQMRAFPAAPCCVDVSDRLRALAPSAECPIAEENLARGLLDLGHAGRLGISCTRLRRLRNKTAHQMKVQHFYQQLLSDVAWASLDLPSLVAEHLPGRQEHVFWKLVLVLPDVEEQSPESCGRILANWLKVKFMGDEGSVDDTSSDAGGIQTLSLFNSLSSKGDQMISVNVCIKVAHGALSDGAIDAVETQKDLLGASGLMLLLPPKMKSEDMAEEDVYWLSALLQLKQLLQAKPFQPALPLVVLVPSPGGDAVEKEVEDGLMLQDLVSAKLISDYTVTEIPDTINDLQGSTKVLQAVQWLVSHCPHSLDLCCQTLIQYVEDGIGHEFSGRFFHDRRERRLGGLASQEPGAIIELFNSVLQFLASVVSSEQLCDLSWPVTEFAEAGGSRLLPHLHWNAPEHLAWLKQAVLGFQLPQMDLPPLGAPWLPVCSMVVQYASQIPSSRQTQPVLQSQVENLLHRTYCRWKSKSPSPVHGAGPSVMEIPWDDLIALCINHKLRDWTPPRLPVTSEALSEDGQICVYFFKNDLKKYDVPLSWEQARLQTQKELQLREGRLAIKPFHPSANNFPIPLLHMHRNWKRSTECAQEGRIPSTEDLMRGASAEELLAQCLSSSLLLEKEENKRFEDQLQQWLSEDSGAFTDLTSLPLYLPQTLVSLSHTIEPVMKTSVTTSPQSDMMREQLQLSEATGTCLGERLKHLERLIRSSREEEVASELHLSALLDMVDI
UniProt Q9UBP6: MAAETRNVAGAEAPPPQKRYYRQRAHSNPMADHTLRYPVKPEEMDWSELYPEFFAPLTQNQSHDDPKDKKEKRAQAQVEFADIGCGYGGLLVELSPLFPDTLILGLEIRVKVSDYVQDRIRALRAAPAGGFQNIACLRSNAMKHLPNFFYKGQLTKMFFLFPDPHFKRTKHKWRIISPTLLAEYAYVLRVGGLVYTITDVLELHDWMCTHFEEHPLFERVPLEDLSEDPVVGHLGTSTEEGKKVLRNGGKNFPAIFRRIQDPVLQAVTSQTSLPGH
UniProt Q14676: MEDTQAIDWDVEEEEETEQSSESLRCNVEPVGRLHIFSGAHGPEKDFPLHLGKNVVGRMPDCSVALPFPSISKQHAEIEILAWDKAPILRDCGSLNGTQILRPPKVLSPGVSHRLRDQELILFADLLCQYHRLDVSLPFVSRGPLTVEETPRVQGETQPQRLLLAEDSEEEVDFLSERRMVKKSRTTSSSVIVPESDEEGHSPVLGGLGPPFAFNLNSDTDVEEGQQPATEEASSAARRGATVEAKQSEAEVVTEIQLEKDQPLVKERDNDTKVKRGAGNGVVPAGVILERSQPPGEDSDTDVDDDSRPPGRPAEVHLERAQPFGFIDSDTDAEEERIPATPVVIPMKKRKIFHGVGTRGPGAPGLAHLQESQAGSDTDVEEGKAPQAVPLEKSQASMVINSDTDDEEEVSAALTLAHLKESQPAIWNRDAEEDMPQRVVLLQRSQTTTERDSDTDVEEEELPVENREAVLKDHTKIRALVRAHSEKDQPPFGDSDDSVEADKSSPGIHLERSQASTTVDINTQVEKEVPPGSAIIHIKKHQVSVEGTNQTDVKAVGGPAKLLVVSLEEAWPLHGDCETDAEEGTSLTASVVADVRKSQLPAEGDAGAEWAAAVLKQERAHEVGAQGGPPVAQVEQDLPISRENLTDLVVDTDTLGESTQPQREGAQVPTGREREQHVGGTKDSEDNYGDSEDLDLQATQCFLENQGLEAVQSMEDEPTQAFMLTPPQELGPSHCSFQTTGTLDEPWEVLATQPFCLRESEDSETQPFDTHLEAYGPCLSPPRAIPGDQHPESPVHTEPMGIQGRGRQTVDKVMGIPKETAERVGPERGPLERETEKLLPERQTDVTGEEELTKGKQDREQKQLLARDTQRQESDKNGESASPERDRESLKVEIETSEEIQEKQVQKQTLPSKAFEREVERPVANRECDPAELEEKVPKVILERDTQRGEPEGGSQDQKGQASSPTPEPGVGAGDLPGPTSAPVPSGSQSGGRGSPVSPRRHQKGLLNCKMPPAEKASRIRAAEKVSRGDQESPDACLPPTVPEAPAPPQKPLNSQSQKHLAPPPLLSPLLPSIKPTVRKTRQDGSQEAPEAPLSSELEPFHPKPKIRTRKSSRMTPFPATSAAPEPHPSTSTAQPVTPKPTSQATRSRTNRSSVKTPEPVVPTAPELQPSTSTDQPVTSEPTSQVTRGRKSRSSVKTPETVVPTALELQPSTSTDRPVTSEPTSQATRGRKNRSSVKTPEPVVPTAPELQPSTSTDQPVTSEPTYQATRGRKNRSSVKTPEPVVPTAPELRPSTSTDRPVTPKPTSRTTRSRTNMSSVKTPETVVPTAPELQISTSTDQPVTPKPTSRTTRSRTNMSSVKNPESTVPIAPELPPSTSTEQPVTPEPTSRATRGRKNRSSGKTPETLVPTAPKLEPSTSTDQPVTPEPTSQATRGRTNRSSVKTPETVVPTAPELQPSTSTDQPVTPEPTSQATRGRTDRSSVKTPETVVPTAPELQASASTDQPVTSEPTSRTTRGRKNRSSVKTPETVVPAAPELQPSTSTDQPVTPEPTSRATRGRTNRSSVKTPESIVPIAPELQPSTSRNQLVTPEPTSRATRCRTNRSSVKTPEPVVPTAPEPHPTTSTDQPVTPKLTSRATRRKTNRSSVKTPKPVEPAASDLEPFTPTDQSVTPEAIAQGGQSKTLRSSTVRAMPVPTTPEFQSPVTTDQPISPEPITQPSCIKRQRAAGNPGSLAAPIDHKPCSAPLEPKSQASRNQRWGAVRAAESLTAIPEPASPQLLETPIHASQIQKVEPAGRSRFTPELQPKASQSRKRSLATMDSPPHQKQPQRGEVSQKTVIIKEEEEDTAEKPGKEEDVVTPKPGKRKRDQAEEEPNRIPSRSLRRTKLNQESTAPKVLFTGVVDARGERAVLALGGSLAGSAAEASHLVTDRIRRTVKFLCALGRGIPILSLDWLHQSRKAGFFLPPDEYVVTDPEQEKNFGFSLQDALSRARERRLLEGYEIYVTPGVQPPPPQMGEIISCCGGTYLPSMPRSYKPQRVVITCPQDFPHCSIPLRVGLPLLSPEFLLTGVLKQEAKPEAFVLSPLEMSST
UniProt P21741: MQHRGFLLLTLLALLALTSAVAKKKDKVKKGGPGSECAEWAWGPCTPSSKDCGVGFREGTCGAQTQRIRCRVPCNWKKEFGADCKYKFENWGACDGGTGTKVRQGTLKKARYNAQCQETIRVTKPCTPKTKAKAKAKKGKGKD

Assays:
Assay in all cases: log2 fold change, soluble protein after heating vs DMSO (PISA); higher = thermal stabilisation; K562 lysate, 10 uM; active = over 0.2 and 3.5 SD of the protein, either way, in both replicates (recomputed)
lapatinib = compound: CS(=O)(=O)CCNCc1ccc(-c2ccc3ncnc(Nc4ccc(OCc5cccc(F)c5)c(Cl)c4)c3c2)o1 [lapatinib]
Method in brief: (§1)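 Pellets of K562 cells were dounce-homogenised in PBS pH 7.4 with 1 mM MgCl2, and the crude extract was held at 1 mg/mL protein for a 30 min treatment with 10 μM compound. Aliquots were heated for 3 min over 48°C-58°C and pooled before NP-40 was added to 0.5% at 4°C. The supernatant from 21,000xg for 90 min was quantified by TMTpro 16plex LC-MS/MS with channel sums equalised. Values are reported from duplicates as log-two fold change in thermal stability relative to solvent controls.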

pictilisib = compound: CS(=O)(=O)N1CCN(Cc2cc3nc(-c4cccc5[nH]ncc45)nc(N4CCOCC4)c3s2)CC1 [pictilisib]
Method in brief: as §1

crizotinib = compound: C[C@@H](Oc1cc(-c2cnn(C3CCNCC3)c2)cnc1N)c1c(Cl)ccc(F)c1Cl [crizotinib]
Method in brief: as §1

[1] = compound: C[C@H](C1=CC=C(C=C1)C(=O)NC2=C3C=CNC3=NC=C2)N
Method in brief: as §1

duvelisib = compound: C[C@H](Nc1ncnc2nc[nH]c12)c1cc2cccc(Cl)c2c(=O)n1-c1ccccc1 [duvelisib]
Method in brief: as §1

gandotinib = compound: Cc1cc(Nc2cc(CN3CCOCC3)c3nc(C)c(Cc4ccc(Cl)cc4F)n3n2)n[nH]1 [gandotinib]
Method in brief: as §1

tozasertib = compound: Cc1cc(Nc2cc(N3CCN(C)CC3)nc(Sc3ccc(NC(=O)C4CC4)cc3)n2)n[nH]1 [tozasertib]
Method in brief: as §1

doramapimod = compound: Cc1ccc(-n2nc(C(C)(C)C)cc2NC(=O)Nc2ccc(OCCN3CCOCC3)c3ccccc23)cc1 [doramapimod]
Method in brief: as §1

bafetinib = compound: Cc1ccc(NC(=O)c2ccc(CN3CC[C@H](N(C)C)C3)c(C(F)(F)F)c2)cc1Nc1nccc(-c2cncnc2)n1 [bafetinib]
Method in brief: as §1

[2] = compound: Cc1cccc(CC(=O)N2CCc3c2ccc(-c2cn(C)c4ncnc(N)c24)c3F)n1
Method in brief: as §1

nilotinib = compound: Cc1cn(-c2cc(NC(=O)c3ccc(C)c(Nc4nccc(-c5cccnc5)n4)c3)cc(C(F)(F)F)c2)cn1 [nilotinib]
Method in brief: as §1

[3] = compound: Cc1nc(Nc2n[nH]c3c2CN(C(=O)N[C@H](CN(C)C)c2ccccc2)C3(C)C)c2sccc2n1
Method in brief: as §1

dasatinib = compound: Cc1nc(Nc2ncc(C(=O)Nc3c(C)cccc3Cl)s2)cc(N2CCN(CCO)CC2)n1 [dasatinib]
Method in brief: as §1

[4] = compound: Cc1ncc(-c2ccnc(Nc3ccc(S(C)(=O)=O)cc3)n2)n1C(C)C
Method in brief: as §1

[5] = compound: Cn1cc(-c2ccc3c(c2)CCN3C(=O)Cc2cccc(C(F)(F)F)c2)c2c(N)ncnc21
Method in brief: as §1

quisinostat = compound: Cn1cc(CNCC2CCN(c3ncc(C(=O)NO)cn3)CC2)c2ccccc21 [quisinostat]
Method in brief: as §1

tipifarnib = compound: Cn1cncc1[C@@](N)(c1ccc(Cl)cc1)c1ccc2c(c1)c(-c1cccc(Cl)c1)cc(=O)n2C [tipifarnib]
Method in brief: as §1

[6] = compound: NC(=O)Nc1cc(-c2cccc(F)c2)sc1C(=O)N[C@H]1CCCNC1
Method in brief: as §1

[7] = compound: NC(=O)c1cnc(N[C@@H]2CCCC[C@@H]2N)nc1Nc1cccc(-n2nccn2)c1
Method in brief: as §1

[8] = compound: NC1(c2ccc(-c3nc4ccn5c(=O)[nH]nc5c4cc3-c3ccccc3)cc2)CCC1
Method in brief: as §1

Target	log2 fold change (lapatinib)	log2 fold change (pictilisib)	log2 fold change (crizotinib)	log2 fold change [1]	log2 fold change (duvelisib)	log2 fold change (gandotinib)	log2 fold change (tozasertib)	log2 fold change (doramapimod)	log2 fold change (bafetinib)	log2 fold change [2]	log2 fold change (nilotinib)	log2 fold change [3]	log2 fold change (dasatinib)	log2 fold change [4]	log2 fold change [5]	log2 fold change (quisinostat)	log2 fold change (tipifarnib)	log2 fold change [6]	log2 fold change [7]	log2 fold change [8]
MDP1 (UniProt Q86V88)	inactive: 0.045	inactive: 0.002	inactive: -0.013	inactive: 0.007	inactive: 0.021	inactive: -0.028	inactive: 0.024	inactive: 0.003	inactive: -0.049	inactive: -0.087	inactive: -0.012	inactive: 0.061	inactive: 0.029	inactive: 0.032	inactive: 0.021	inactive: -0.058	inactive: 0.046	inactive: 0.002	inactive: -0.013	inactive: -0.046
MED26 (UniProt O95402)	inactive: -0.004	inactive: -0.066	inactive: 0.013	inactive: -0.128	–	inactive: 0.061	inactive: -0.005	inactive: 0.064	inactive: -0.155	inactive: -0.221	inactive: 0.174	inactive: -0.156	–	inactive: -0.075	–	inactive: -0.03	inactive: 0.087	inactive: 0.02	inactive: -0.053	inactive: 0.238
MFSD8 (UniProt Q8NHS3)	inactive: -0.003	inactive: -0.209	inactive: -0.031	inactive: -0.108	–	inactive: 0.058	–	inactive: -0.133	inactive: -0.02	inactive: -0.006	inactive: -0.159	inactive: -0.2	–	inactive: 0.056	–	inactive: -0.03	inactive: 0.062	inactive: 0.065	inactive: 0.102	inactive: -0.073
MEF2C isoform 2 (UniProt Q06413)	inactive: -0.09	–	inactive: -0.01	inactive: 0.158	inactive: -0.123	inactive: -0.065	inactive: 0.087	inactive: 0.07	–	inactive: -0.021	inactive: -0.012	inactive: -0.088	inactive: 0.062	inactive: 0.049	inactive: 0.067	inactive: 0.15	inactive: -0.088	inactive: -0.094	inactive: 0.048	–
MED22 isoform 2 (UniProt Q15528)	inactive: 0.002	inactive: 0.013	inactive: 0.036	inactive: 0.07	inactive: 0.016	inactive: -0.058	inactive: -0.019	inactive: 0.015	inactive: -0.145	inactive: 0.013	inactive: 0.002	inactive: -0.004	inactive: 0.027	inactive: 0.025	inactive: -0.002	inactive: -0.016	inactive: 0.049	inactive: -0.061	inactive: 0	inactive: 0.011
MERTK (UniProt Q12866)	inactive: 0.084	inactive: -0.126	inactive: 0.05	inactive: 0.342	inactive: 0.009	inactive: -0.268	inactive: 0.055	–	inactive: 0.044	inactive: -0.206	inactive: -0.017	inactive: -0.006	inactive: -0.078	inactive: 0.045	inactive: 0.106	inactive: -0.003	inactive: -0.263	inactive: -0.027	inactive: 0.055	inactive: -0.021
METTL2B (UniProt Q6P1Q9)	inactive: 0.042	inactive: 0.037	inactive: 0.103	inactive: -0.054	inactive: 0.07	inactive: -0.036	–	inactive: 0	inactive: -0.046	inactive: -0.054	–	–	inactive: -0.293	–	inactive: -0.095	inactive: 0.033	–	inactive: -0.076	inactive: -0.018	–
MCM3AP (UniProt O60318)	inactive: -0.039	inactive: -0.169	–	inactive: -0.028	inactive: -0.21	inactive: -0.048	–	–	inactive: -0.125	inactive: -0.24	inactive: 0.297	inactive: -0.036	inactive: -0.112	inactive: -0.311	inactive: -0.015	–	inactive: -0.057	–	inactive: 0.023	inactive: -0.001
MFF isoform 2 (UniProt Q9GZY8)	inactive: 0.055	inactive: 0.028	inactive: 0	active: -0.239	inactive: 0.022	inactive: 0.106	inactive: -0.031	inactive: -0.035	inactive: -0.031	inactive: 0.24	inactive: -0.025	inactive: -0.039	inactive: -0.005	inactive: 0.008	inactive: -0.012	inactive: 0.002	inactive: -0.004	inactive: 0.007	inactive: 0.016	inactive: -0.026
METTL26 (UniProt Q96S19)	inactive: 0.031	inactive: -0.136	inactive: -0.159	inactive: 0.034	inactive: 0.045	inactive: -0.086	inactive: -0.011	inactive: 0.092	inactive: -0.131	inactive: 0.086	–	–	inactive: 0.001	–	inactive: 0.032	inactive: 0.011	–	inactive: -0.011	inactive: -0.022	inactive: 0.029
METTL1 (UniProt Q9UBP6)	inactive: 0.003	inactive: 0.03	–	inactive: -0.039	inactive: -0.002	inactive: 0.001	inactive: -0.021	inactive: 0.015	inactive: -0.011	inactive: 0.046	inactive: -0.053	inactive: -0.037	inactive: -0.035	inactive: -0.047	inactive: -0.007	inactive: 0.036	inactive: 0.003	inactive: -0.014	inactive: -0.023	inactive: -0.009
MCM10 (UniProt Q7L590)	inactive: -0.066	inactive: -0.104	inactive: -0.106	inactive: 0.075	inactive: -0.009	inactive: -0.018	–	inactive: -0.009	inactive: -0.063	inactive: -0.051	inactive: -0.008	inactive: -0.006	inactive: 0.012	inactive: 0.05	inactive: -0.174	inactive: -0.222	inactive: 0.104	inactive: 0.054	inactive: 0.049	inactive: 0.039
MBD4 (UniProt O95243)	inactive: 0.207	–	inactive: 0.027	inactive: 0.074	inactive: -0.106	inactive: 0.04	inactive: 0.102	inactive: 0.018	–	inactive: 0.134	inactive: 0.073	inactive: -0.129	inactive: -0.058	inactive: 0.01	inactive: 0.08	inactive: -0.044	inactive: -0.024	inactive: -0.064	inactive: -0.108	–
MDC1 (UniProt Q14676)	inactive: -0.004	inactive: -0.031	inactive: -0.019	inactive: -0.016	inactive: -0.009	inactive: 0.005	inactive: -0.008	inactive: 0.021	inactive: 0	inactive: 0.018	inactive: 0.019	inactive: -0.037	inactive: -0.023	inactive: -0.017	inactive: 0.004	inactive: -0.046	inactive: -0.082	inactive: 0.012	inactive: -0.01	inactive: 0.007
MCUB (UniProt Q9NWR8)	inactive: 0.044	inactive: 0.088	inactive: -0.17	inactive: 0.187	inactive: -0.018	inactive: -0.347	–	inactive: 0.05	inactive: -0.045	inactive: -0.016	inactive: -0.142	inactive: 0.119	inactive: 0.075	inactive: -0.12	inactive: 0.122	inactive: -0.262	inactive: -0.112	inactive: 0.143	inactive: -0.008	inactive: -0.014
MDK (UniProt P21741)	inactive: -0.015	–	inactive: 0.231	inactive: 0.245	inactive: 0.036	inactive: -0.179	inactive: 0.043	inactive: -0.108	–	inactive: -0.218	inactive: 0.074	inactive: -0.03	inactive: -0.003	inactive: 0.028	inactive: -0.079	inactive: 0.198	inactive: 0.097	inactive: 0.025	inactive: 0.029	inactive: 0.014
MED25 isoform 3 (UniProt Q71SY5)	inactive: 0.018	inactive: -0.05	inactive: -0.05	inactive: 0.053	inactive: 0.063	inactive: -0.095	inactive: -0.109	inactive: -0.042	inactive: -0.023	inactive: -0.052	inactive: 0.132	inactive: 0.026	inactive: -0.039	inactive: 0.097	inactive: -0.017	inactive: -0.008	inactive: -0.024	inactive: 0.029	inactive: -0.013	inactive: -0.073

Individual results from the list:
Value for MBD4 (UniProt O95243) under log2 fold change [6]: inactive: -0.064
Value for METTL2B (UniProt Q6P1Q9) under log2 fold change (gandotinib): inactive: -0.036
